# According to patent publication US8497380B2, “Substituted acetophenones useful as PDE4 inhibitors” (Leo Pharma A/S, priority 2006, dated 2013):
# Chains of the proteins cited; added tags and fusions are not shown. Residues count along the entry.
# UniProt Q08499, 1-673 isoform Q08499-2: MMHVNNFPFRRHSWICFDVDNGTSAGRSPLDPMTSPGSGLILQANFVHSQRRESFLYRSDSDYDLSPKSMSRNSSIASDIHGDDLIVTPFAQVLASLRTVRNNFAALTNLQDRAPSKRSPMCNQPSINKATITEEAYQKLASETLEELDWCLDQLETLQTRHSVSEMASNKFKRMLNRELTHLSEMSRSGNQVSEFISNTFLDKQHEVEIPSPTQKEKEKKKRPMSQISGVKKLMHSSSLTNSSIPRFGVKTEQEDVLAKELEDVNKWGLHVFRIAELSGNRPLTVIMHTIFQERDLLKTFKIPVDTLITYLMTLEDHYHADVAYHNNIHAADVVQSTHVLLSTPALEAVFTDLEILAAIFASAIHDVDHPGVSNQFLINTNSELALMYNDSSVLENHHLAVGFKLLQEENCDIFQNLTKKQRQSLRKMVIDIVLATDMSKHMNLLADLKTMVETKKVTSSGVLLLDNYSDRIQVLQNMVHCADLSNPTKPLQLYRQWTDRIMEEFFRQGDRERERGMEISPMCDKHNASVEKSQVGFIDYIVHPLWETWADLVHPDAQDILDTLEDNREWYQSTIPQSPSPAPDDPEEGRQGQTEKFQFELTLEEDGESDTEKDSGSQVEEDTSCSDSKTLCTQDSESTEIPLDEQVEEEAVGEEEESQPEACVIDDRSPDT
# Some of these results come from one statement about several compounds together.
# Biological target: Human recombinant PDE4 (Gene bank accession no NM—006203) (Homo sapiens, UniProt Q08499)
# Assay: PDE4 Assay
# Format: biochemical
# Details: 50% inhibition of substrate (cAMP) cleavage; 1 hour incubation; test compound up to 10 uM; SPA beads
row,SMILES,−log IC50 (M)
1,"COc1ccc(C(=O)COc2c(C(=O)Cc3c(Cl)cncc3Cl)ccc(OC)c2OC)cc1 [Compound 146, 2-(3,5-Dichloro-pyridin-4-yl)-1-{3,4-dimethoxy-2-[2-(4-methoxy-phenyl)-2-oxo-ethoxy]-phenyl}-ethanone]",above 6 M
2,"COc1ccc(C(=O)Cc2c(Cl)cncc2Cl)c(OCc2ccccc2C#N)c1OC [Compound 147, 2-{6-[2-(3,5-Dichloro-pyridin-4-yl)-acetyl]-2,3-dimethoxy-phenoxymethyl}-benzonitrile]",above 6 M
3,"COc1ccc(C(=O)Cc2c(Cl)cncc2Cl)c(OCc2ccc(C#N)cc2)c1OC [Compound 148, 4-{6-[2-(3,5-Dichloro-pyridin-4-yl)-acetyl]-2,3-dimethoxy-phenoxymethyl}-benzonitrile]",above 6 M
4,"CCCCCOc1c(C(=O)Cc2c(Cl)cncc2Cl)ccc(OC)c1OC [Compound 150, 2-(3,5-Dichloro-pyridin-4-yl)-1-(3,4-dimethoxy-2-pentyloxy-phenyl)-ethanone]",above 6 M
5,"COc1ccc(C(=O)Cc2c(Cl)cncc2Cl)c(OCC2CCCCC2)c1OC [Compound 151, 1-(2-Cyclohexylmethoxy-3,4-dimethoxy-phenyl)-2-(3,5-dichloro-pyridin-4-yl)-ethanone]",above 6 M
6,"COc1ccc(C(=O)Cc2c(Cl)cncc2Cl)c(OCc2cccc(C#N)c2)c1OC [Compound 152, 3-{6-[2-(3,5-Dichloro-pyridin-4-yl)-acetyl]-2,3-dimethoxy-phenoxymethyl}-benzonitrile]",above 6 M
7,"COc1ccc(C(=O)Cc2c(Cl)cncc2Cl)c(OCCOc2ccc(Cl)cc2)c1OC [Compound 153, 1-{2-[2-(4-Chloro-phenoxy)-ethoxy]-3,4-dimethoxy-phenyl}-2-(3,5-dichloro-pyridin-4-yl)-ethanone]",above 6 M
8,"CCC(CC)COc1c(C(=O)Cc2c(Cl)cncc2Cl)ccc(OC)c1OC [Compound 154, 2-(3,5-Dichloro-pyridin-4-yl)-1-[2-(2-ethyl-butoxy)-3,4-dimethoxy-phenyl]-ethanone]",above 6 M
9,"COc1ccc(C(=O)Cc2c(Cl)cncc2Cl)c(OCCO)c1OC [Compound 155, 2-(3,5-Dichloro-pyridin-4-yl)-1-[2-(2-hydroxy-ethoxy)-3,4-dimethoxy-phenyl]-ethanone]",above 6 M
10,"COc1ccc(C(=O)Cc2c(Cl)cncc2Cl)c(OCC(=O)c2ccc3ccccc3c2)c1OC [Compound 157, 2-(3,5-Dichloro-pyridin-4-yl)-1-[3,4-dimethoxy-2-(2-naphthalen-2-yl-2-oxo-ethoxy)-phenyl]-ethanone]",above 6 M
11,"COc1ccc(OC)c(C(=O)COc2c(C(=O)Cc3c(Cl)cncc3Cl)ccc(OC)c2OC)c1 [Compound 158, 2-(3,5-Dichloro-pyridin-4-yl)-1-{2-[2-(2,5-dimethoxy-phenyl)-2-oxo-ethoxy]-3,4-dimethoxy-phenyl}-ethanone]",above 6 M
12,"COc1ccc(C(=O)Cc2c(Cl)cncc2Cl)c(OCC(=O)c2ccc(C)cc2)c1OC [Compound 159, 2-(3,5-Dichloro-pyridin-4-yl)-1-[3,4-dimethoxy-2-(2-oxo-2-p-tolyl-ethoxy)-phenyl]-ethanone]",above 6 M
13,"COc1ccc(C(=O)Cc2c(Cl)cncc2Cl)c(OCc2ccc(F)cc2)c1OC [Compound 160, 2-(3,5-Dichloro-pyridin-4-yl)-1-[2-(4-fluoro-benzyloxy)-3,4-dimethoxy-phenyl]-ethanone]",above 6 M
14,"COc1ccc(C(=O)Cc2c(Cl)cncc2Cl)c(OCc2ccccc2F)c1OC [Compound 161, 2-(3,5-Dichloro-pyridin-4-yl)-1-[2-(2-fluoro-benzyloxy)-3,4-dimethoxy-phenyl]-ethanone]",above 6 M
15,"COc1ccc(C(=O)Cc2c(Cl)cncc2Cl)c(OCc2cccc(C(F)(F)F)c2)c1OC [Compound 162, 2-(3,5-Dichloro-pyridin-4-yl)-1-[3,4-dimethoxy-2-(3-trifluoromethyl-benzyloxy)-phenyl]-ethanone]",above 6 M
16,"COc1ccc(C(=O)Cc2c(Cl)cncc2Cl)c(OCc2cccc(OC(F)(F)F)c2)c1OC [Compound 163, 2-(3,5-Dichloro-pyridin-4-yl)-1-[3,4-dimethoxy-2-(3-trifluoromethoxy-benzyloxy)-phenyl]-ethanone]",above 6 M
17,"COc1ccccc1C(=O)COc1c(C(=O)Cc2c(Cl)cncc2Cl)ccc(OC)c1OC [Compound 165, 2-(3,5-Dichloro-pyridin-4-yl)-1-{3,4-dimethoxy-2-[2-(2-methoxy-phenyl)-2-oxo-ethoxy]-phenyl}-ethanone]",above 6 M
18,"COc1ccc(C(=O)Cc2c(Cl)cncc2Cl)c(OCC(=O)c2ccc(C)cc2C)c1OC [Compound 166, 2-(3,5-Dichloro-pyridin-4-yl)-1-{2-[2-(2,4-dimethyl-phenyl)-2-oxo-ethoxy]-3,4-dimethoxy-phenyl}-ethanone]",above 6 M
19,"COc1ccc(C(=O)Cc2c(Cl)cncc2Cl)c(OCc2ccc(Cl)cc2)c1OC [Compound 167, 1-[2-(4-Chloro-benzyloxy)-3,4-dimethoxy-phenyl]-2-(3,5-dichloro-pyridin-4-yl)-ethanone]",above 6 M

row,SMILES,−log IC50 (M)
1,"COc1ccc(C(=O)Cc2c(Cl)cncc2Cl)c(OCc2ccccc2OC(F)F)c1OC [Compound 168, 2-(3,5-Dichloro-pyridin-4-yl)-1-[2-(2-difluoromethoxy-benzyloxy)-3,4-dimethoxy-phenyl]-ethanone]",above 6 M
2,"COc1ccc(C(=O)Cc2c(Cl)cncc2Cl)c(OCc2ccc(C(C)C)cc2)c1OC [Compound 169, 2-(3,5-Dichloro-pyridin-4-yl)-1-[2-(4-isopropyl-benzyloxy)-3,4-dimethoxy-phenyl]-ethanone]",above 6 M
3,"COc1ccc(C(=O)Cc2c(Cl)cncc2Cl)c(OCc2c(F)cccc2C(F)(F)F)c1OC [Compound 170, 2-(3,5-Dichloro-pyridin-4-yl)-1-[2-(2-fluoro-6-trifluoromethyl-benzyloxy)-3,4-dimethoxy-phenyl]-ethanone]",above 6 M
4,"COc1ccc(C(=O)Cc2c(Cl)cncc2Cl)c(OCc2ccc(C)c(F)c2F)c1OC [Compound 171, 2-(3,5-Dichloro-pyridin-4-yl)-1-(2-(2,3-difluoro-4-methyl-benzyloxy)-3,4-dimethoxy-phenyl)-ethanone]",above 6 M
5,"COc1ccc(C(=O)Cc2c(Cl)cncc2Cl)c(OCc2ccccc2C)c1OC [Compound 172, 2-(3,5-Dichloro-pyridin-4-yl)-1-[3,4-dimethoxy-2-(2-methyl-benzyloxy)-phenyl]-ethanone]",above 6 M
6,"COc1ccc(C(=O)Cc2c(Cl)cncc2Cl)c(OCc2cccc(C)c2)c1OC [Compound 173, 2-(3,5-Dichloro-pyridin-4-yl)-1-(3,4-dimethoxy-2-(3-methyl-benzyloxy)phenyl)-ethanone]",above 6 M
7,"CCC=CCOc1c(C(=O)Cc2c(Cl)cncc2Cl)ccc(OC)c1OC [Compound 174, 2-(3,5-Dichloro-pyridin-4-yl)-1-(3,4-dimethoxy-2-pent-2-enyloxy-phenyl)-ethanone]",above 6 M
8,"COc1ccc(C(=O)Cc2c(Cl)cncc2Cl)c(OCc2ccc3nc(C)ccc3c2)c1OC [Compound 175, 2-(3,5-Dichloro-pyridin-4-yl)-1-[3,4-dimethoxy-2-(2-methyl-quinolin-6-ylmethoxy)-phenyl]-ethanone]",above 6 M
9,"COc1ccc(C(=O)Cc2c(Cl)cncc2Cl)c(OCc2ccccc2Cl)c1OC [Compound 176, 1-[2-(2-Chloro-benzyloxy)-3,4-dimethoxy-phenyl]-2-(3,5-dichloro-pyridin-4-yl)-ethanone]",above 6 M
10,"COc1cccc(COc2c(C(=O)Cc3c(Cl)cncc3Cl)ccc(OC)c2OC)c1 [Compound 177, 2-(3,5-Dichloro-pyridin-4-yl)-1-[3,4-dimethoxy-2-(3-methoxy-benzyloxy)-phenyl]-ethanone]",above 6 M
11,"COc1ccc(COc2c(C(=O)Cc3c(Cl)cncc3Cl)ccc(OC)c2OC)cc1 [Compound 178, 2-(3,5-Dichloro-pyridin-4-yl)-1-[3,4-dimethoxy-2-(4-methoxy-benzyloxy)-phenyl]-ethanone]",above 6 M
12,"COc1ccc(C(=O)Cc2c(Cl)cncc2Cl)c(OCCc2cccc(Cl)c2)c1OC [Compound 179, 1-{2-[2-(3-Chloro-phenyl)-ethoxy]-3,4-dimethoxy-phenyl}-2-(3,5-dichloro-pyridin-4-yl)-ethanone]",above 6 M
13,"COc1ccc(C(=O)Cc2c(Cl)cncc2Cl)c(OCCCCC(C)C)c1OC [Compound 180, 2-(3,5-Dichloro-pyridin-4-yl)-1-[3,4-dimethoxy-2-(5-methyl-hexyloxy)-phenyl]-ethanone]",above 6 M
14,"COc1ccc(C(=O)Cc2c(Cl)cncc2Cl)c(OCCC2CCCCC2)c1OC [Compound 181, 1-[2-(2-Cyclohexyl-ethoxy)-3,4-dimethoxy-phenyl]-2-(3,5-dichloro-pyridin-4-yl)-ethanone]",above 6 M
15,"CCOC(=O)CCCCOc1c(C(=O)Cc2c(Cl)cncc2Cl)ccc(OC)c1OC [Compound 182, 5-{6-[2-(3,5-Dichloro-pyridin-4-yl)-acetyl]-2,3-dimethoxy-phenoxy}-pentanoic acid ethyl ester]",above 6 M
16,"COc1ccc(C(=O)Cc2c(Cl)cncc2Cl)c(OCCCOCc2ccccc2)c1OC [Compound 183, 1-[2-(3-Benzyloxy-propoxy)-3,4-dimethoxy-phenyl]-2-(3,5-dichloro-pyridin-4-yl)-ethanone]",above 6 M
17,"COc1ccc(C(=O)Cc2c(Cl)cncc2Cl)c(OCCN2C(=O)c3ccccc3C2=O)c1OC [Compound 185, 2-(2-{6-[2-(3,5-Dichloro-pyridin-4-yl)-acetyl]-2,3-dimethoxy-phenoxy}-ethyl)-isoindole-1,3-dione]",above 6 M
18,"COc1ccc(C(=O)Cc2c(Cl)cncc2Cl)c(OCCCN2C(=O)c3ccccc3C2=O)c1OC [Compound 186, 2-(3-{6-[2-(3,5-Dichloro-pyridin-4-yl)-acetyl]-2,3-dimethoxy-phenoxy}-propyl)-isoindole-1,3-dione]",above 6 M
